Tested on: Wistar rats subjected to a cholesterol-rich (2%) diet
Assay: Hypocholesterolemic activity in rats on a cholesterol-rich diet (plasma total cholesterol)
Format: in vivo, rat
Details: 2.5 mg/Kg orally by gavage once per day for 4 weeks
Description: Plasma levels of total cholesterol were measured with a standard colorimetric enzymatic method. […] Plasma levels of total cholesterol were determined at one-week intervals. Blood was collected from a tail vein.

CC(C)c1c(C(=O)Nc2ccccc2)c(-c2ccccc2)c(-c2ccc(F)cc2)n1CC[C@@H](O)C[C@@H](O)CC(=O)O [Atorvastatin, atorvastatin]
Diminution of plasma total cholesterol in rats: 25%

Reference: US20130116291A1, “ASSOCIATION OF XANTHINE OXIDASE INHIBITORS AND STATINS AND USE THEREOF” (Menarini International Operations Luxembourg S.A., priority 2010, published 2013)
